Taken from: PubChem BioAssay AID602196 (INSERM, 2012)
The whole screen tested about 23,000 reagents; below is a random part of them. 455 of all reagents (2%) were called active. 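Active includes both protection and sensitisation; some change values fall well beyond the stated -50 to +50 range.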 Entries without a mark were called inactive. Not all columns of the deposit are shown. The record does not give: the amount of reagent.

- Screen: 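Genes whose knock-down alters cisplatin killing of lung cancer cells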
- System: human A549 lung cancer cells
- Knock-down reagent: siRNA pair against human genes
- Duration: 48 h transfection before cisplatin; time from cisplatin to read-out not stated
- Challenge: cisplatin at a dose killing half of control-siRNA cells; exact dose and duration not given
- Read-out: 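Cisplatin cell death as a shift from the 50% death seen with control siRNA; siRNAs toxic or growth-blocking alone scored 0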
- Reading the numbers: two-siRNA summed score (-2 to +2): higher = both siRNAs protect from cisplatin killing; -2 means both sensitise
- Call rule: 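Each siRNA scores 0 if harmful alone by LDH or WST-1, otherwise +1 if it reduces and -1 if it increases cisplatin killing; a gene is active when both siRNAs agree (sum +2 or -2)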
- Calls: active = both siRNAs shift cisplatin killing the same way; inactive = no consistent shift, or siRNA harmful alone

no.	target gene	two-siRNA summed score (-2 to +2)
1	MYO1G	0
2	LOC440332	0
3	CHID1	0
4	SLC2A12	0
5	COPS9	0
6	LOC441591	0
7	LOC440849	1
8	PLEK	-1
9	FUBP1	-1
10	IFRD2	1
11	REXO4	0
12	CXCR6	-1
13	AOC3	0

A run of entries taken from the entries so far:
no.	target gene	two-siRNA summed score (-2 to +2)
5	COPS9	0
6	LOC441591	0

Next entries:
no.	target gene	two-siRNA summed score (-2 to +2)
14	ZNF785	0
15	ATP5MC1	1
16	FUT8	0
17	ST6GALNAC2	0
18	LCN10	1
19	FRY	0
20	GYS2	1
21	HOOK2	1
22	RBM10	0
23	TRPV5	0
